Patent publication US20120028988A1, “USE OF PYRIDAZINONE COMPOUND FOR CONTROL OF HARMFUL ARTHROPOD PESTS” (SUMITOMO CHEMICAL COMPANY, LIMITED, priority 2009, published 2012)
Some results were stated once for a whole list of compounds, not compound by compound. Some compounds share one range, which may span the group rather than tell each member.

Tests used:
Format in all cases: in vivo
Nilaparvata lugens = assay: Test Example 3: spray on rice seedling, Nilaparvata lugens larvae, preventive value; details: 500 ppm active ingredient, 10 mL sprayed on rice seedling; first-instar larvae; 25° C., after 6 days
Aphis gossypii = assay: Test Example 4: spray on cucumber seedling inoculated with Aphis gossypii, preventive value; details: 500 ppm active ingredient, 10 mL sprayed on cucumber seedling 1 day after inoculation; 5 days after spraying
Tetranychus urticae = assay: Test Example 5: spray on Phaseolus vulgaris seedling inoculated with Tetranychus urticae, preventive rate; details: 500 ppm active ingredient, 30 mL sprayed on Phaseolus vulgaris seedling 1 day after inoculation of female adults; 8 days after spraying
Plutella xylostella = details: 500 ppm active ingredient, 20 mL/cup sprayed on Brassicae oleracea; second-stage larvae; 25° C., after 5 days
Procedure: (§1) The preparation of the present composition obtained by Preparation Example 14 was diluted with water so as to have a concentration of active ingredient of 500 ppm, to prepare a drug solution for test.
The drug solution for test was sprayed at a rate of 20 mL/cup on Brassicae oleracea at the 3 leaf stage planted in a polyethylene cup. After the drug solution dried, leaves and stems were cut out and placed in a 50 mL cup. 5 second-stage larvae of Plutella xylostella were released there, and the lid was closed. This cup was stored at 25° C., and the number of surviving insects was counted after 5 days, and the mortality of the insects was calculated by the following equation.
(§2) Mortality of Insects (%)=(Number of Dead Insects/Number of Test Insects)×100

Adoxophyes orana = assay: Test Example 2: treated artificial diet (SilkMate 2S), Adoxophyes orana larvae, insecticidal index; details: 500 ppm active ingredient, 1 mL on SilkMate 2S; first-instar larvae; 25° C., after 7 days
Spodoptera litura = details: 500 ppm active ingredient, 20 mL/cup sprayed on Brassicae oleracea; fourth-stage larvae; 25° C., after 6 days
Procedure: as §1
The drug solution for test was sprayed at a rate of 20 mL/cup on Brassicae oleracea at the 5 to 6 leaf stages planted in a polyethylene cup. After the drug solution dried, 10 fourth-stage larvae of Spodoptera litura were released. Brassicae oleracea at the 5 to 6 leaf stage planted in this polyethylene cup was covered with an another polyethylene cup (volume of 400 mL). This was stored at 25° C., and the number of surviving insects was counted after 6 days, then the mortality of the insects was calculated by the following equation.
as §2

Bemisia tabaci = assay: Test Example 9: spray on tomato seedling with Bemisia tabaci larvae, preventive value; details: 500 ppm active ingredient, 10 ml/cup sprayed on tomato seedling when larvae hatched; 25° C., after 7 days
Culex pipiens pallens = assay: Test Example 7: Culex pipiens pallens last instar larvae in diluted drug solution, mortality index; details: 0.7 mL of 500 ppm drug solution diluted with ion exchanged water to 100 mL, after 1 day

Compound | preventive value (Nilaparvata lugens) [%] | preventive value (Aphis gossypii) [%] | preventive rate (Tetranychus urticae) [%] | further results
COC(=O)Oc1cnn(C)c(=O)c1-c1cc(-c2ccc(Cl)cc2)ccc1C [I-b-61] | ≥ 90 | ≥ 90 | ≥ 90 | 
CCc1ccc(-c2ccc(Cl)cc2)cc1-c1c(O)c(C)nn(C)c1=O [I-a-64] | ≥ 90 | ≥ 90 | ≥ 90 | 
Cc1ccc(-c2ccc(Cl)cc2)cc1-c1c(OC(=S)N(C)C)c(C)nn(C)c1=O [I-b-59] |  |  |  | mortality of the insects (Plutella xylostella): ≥ 80%; insecticidal index (Adoxophyes orana): 3 (80 to 99%); mortality of the insects (Spodoptera litura): ≥ 80%
Cc1ccc(-c2ccc(Cl)cc2)cc1-c1c(OC(=O)OC(C)C)c(C)nn(C)c1=O [I-b-58] | ≥ 90 | ≥ 90 | ≥ 90 | 
COC(=O)Oc1c(C)nn(C)c(=O)c1-c1cc(-c2ccc(Cl)cc2)ccc1C [I-b-55] | ≥ 90 | ≥ 90 | ≥ 90 | 
Cc1ccc(-c2ccc(Cl)cc2)cc1-c1c(O)c(C)nn(C)c1=O [I-a-40] | ≥ 90 | ≥ 90 | ≥ 90 | preventive value (Bemisia tabaci): ≥ 90%
CCc1cc(-c2ccc(Cl)cc2)cc(CC)c1-c1c(O)c(C)nn(C)c1=O [I-a-70] |  |  |  | index (mortality) (Culex pipiens pallens): 4 (mortality 91 to 100%)
Cc1ccc(-c2ccc(Cl)cc2)cc1-c1c(OC(=O)C(C)C)c(C)nn(C)c1=O [I-b-52] | ≥ 90 | ≥ 90 |  | 
CC(=O)Oc1c(C)nn(C)c(=O)c1-c1cc(-c2ccc(F)cc2)ccc1C [I-b-48] |  |  |  | preventive value (Bemisia tabaci): ≥ 90%
CCC(=O)Oc1c(C)nn(C)c(=O)c1-c1cc(-c2ccc(Cl)cc2)ccc1C [I-b-51] | ≥ 90 | ≥ 90 |  | 
CCC(C)(C)C(=O)Oc1c(C)nn(C)c(=O)c1-c1cc(-c2ccc(Cl)cc2)ccc1C [I-b-54] |  |  |  | mortality of the insects (Plutella xylostella): ≥ 80%; insecticidal index (Adoxophyes orana): 3 (80 to 99%); mortality of the insects (Spodoptera litura): ≥ 80%
CCc1ccc(-c2ccc(Cl)cc2)cc1-c1c(OC(=O)OC)cnn(C)c1=O [I-b-60] |  |  |  | mortality of the insects (Plutella xylostella): ≥ 80%
Cc1ccc(-c2c(O)cnn(C)c2=O)c(C)c1 [I-a-9] | ≥ 90 |  |  | index (mortality) (Culex pipiens pallens): 4 (mortality 91 to 100%)
Cc1ccc(-c2ccc(F)c(F)c2)cc1-c1c(O)c(C)nn(C)c1=O [I-a-58] | ≥ 90 | ≥ 90 | ≥ 90 | preventive value (Bemisia tabaci): ≥ 90%
Cc1ccc(-c2ccc(Cl)cc2)cc1-c1c(OC(=O)CC(C)(C)C)c(C)nn(C)c1=O [I-b-57] |  |  | ≥ 90 | 
Cc1ccc(-c2ccc(Cl)cc2)cc1-c1c(OC(=O)C(C)(C)C)c(C)nn(C)c1=O [I-b-53] |  |  |  | mortality of the insects (Plutella xylostella): ≥ 80%; insecticidal index (Adoxophyes orana): 3 (80 to 99%); mortality of the insects (Spodoptera litura): ≥ 80%
Cc1cc(-c2ccc(Cl)cc2)ccc1-c1c(O)c(C)nn(C)c1=O [I-a-63] | ≥ 90 | ≥ 90 |  | index (mortality) (Culex pipiens pallens): 4 (mortality 91 to 100%)
C=CCOC(=O)Oc1c(C)nn(C)c(=O)c1-c1cc(-c2ccc(Cl)cc2)ccc1C [I-b-56] | ≥ 90 | ≥ 90 | ≥ 90 | 
CC(=O)Oc1c(C)nn(C)c(=O)c1-c1cc(-c2ccc(Cl)cc2)ccc1C [I-b-45] |  |  |  | mortality of the insects (Spodoptera litura): ≥ 80%
CCc1ccc(-c2ccc(Cl)cc2)cc1-c1c(O)cnn(C)c1=O [I-a-61] |  |  |  | mortality of the insects (Plutella xylostella): ≥ 80%
